The whole screen tested about 220,000 compounds, of which about 2,400 (1.1%) were called active. This list was built around the results that the source calls inconclusive (neither active nor inactive); the mix of calls is not that of the screen. Calls come from the whole dose curve; as a rule, active = well fitted inhibition curve with a large enough effect; inconclusive = small, poorly fitted or top-dose-only effect, or effect the other way; inactive = no such curve, though single readings can be large or run the other way. Where the call is inconclusive, the potency comes from a doubtful curve fit.
assay: qHTS Multiplex Assay to Identify Dual Action Probes in a Cell Model of Huntington: Aggregate Formation (GFP); settings: PC12 HttQ103-GFP aggregates, Acumen cytometry, 40 h; activity change, negative = inhibition: at 46.1 µM (top of the series) unless noted; note: nearly all actives have a fitted effect of over 60% in size
Description: NIH Chemical Genomics Center [NCGC]
NIH Molecular Libraries Probe Production centers Network [MLPCN]
Assay Submitter (PI): Wei Zheng
Huntington's disease is a neurodegenerative disorder caused by a trinucleotide repeat expansion in Exon 1 of the Huntingtin gene. The CAG trinucleotide encodes glutamine and polyglutamine expansions cause cell death in selective areas of the brain. Huntington polyglutamine repeats have the tendency to form aggregates which are observable in later stages of the disease. The exact nature of the aggregates, whether toxic, protective, or insignificant, is unclear.
A stable PC12 cell line containing a gene fusion of Exon 1 of the Huntingtin gene linked to GFP under the control of the inducible ecdysone promoter were used as the cell-based model of Huntington Disease for high throughput screening. Exon 1 of the Huntingtin gene contained an expansion of 103 polyglutamines (Q103) which, when expressed, caused cell death and distinct, bright GFP aggregates. The amount of cell death and the size and intensity of GFP aggregates increased over time and induction level. The cell death were quantified with a measurement of ATP content in the cells. A maximal 40-50% of cell death was observed when the Huntington gene was induced in this cell line.
We optimized this assay in a homogeneous 1536 well format. A quantitative high throughput screen (qHTS) was conducted on the PC12 cells which were induced to express the toxic fusion construct. Small molecules which reduced aggregate formation were identified bu using a laser scanning cytometer calibrated to detect the aggregates in cell lysates.
PC12 cells stably containing a construct with an ecdysone inducible promoter expressing GFP fused to the exon 1 of HTTQ103 (Huntington protein which containing a 103 ployglutamine expansion) were used.
NCGC Assay Protocol Summary:
Sequence, Parameter, Description
1, Reagent, 5 uL 1500 cells/well 1536 TC treated White clear bottom plate
2, Compound, 23 nL Tebufenozide inducer (100 nM final) to all columns
3, Compound, 23 nL 40 uM to 0.5 nM Libraries
5, Reagent, 5 ul ATPLite cell death assay reagent
6, Detector, Aggregate quantitation by Acumen Explorer
Media consisted of phenol red free DMEM + 5% equine serum (Hyclone # SH30072.03 ), 5% supplemented Bovine Calf Serum (Hyclone # SH30074.03 ), 1x pen/strep, no G418
Acumen Explorer was used to quantitate GFP aggregates using the following criteria: […] laser excitation, 500-530 nm emission, the PMT was set at a voltage of 450 volts, and objects ranging in size of […] in size having a signal of 6 STDEV above background were collected.
Control columns: 1 = DMSO, 2= 2 uM teb dilns (1:1), 4 = 100 nM Teb inducer. Sample columns received 100 nM Teb.
% is set by controls: 0 for no effect and ±100 for the full control effect; potency is the fitted concentration of half-maximal effect.

SMILES	Potency	activity change, negative = inhibition
C/C(=N\NC(=S)Nc1cc(S(=O)(=O)N2CCOCC2)ccc1Cl)c1ccccc1F	inconclusive: 35.5 µM [inhibitor, single point]	
O=C(Cc1ccc(Cl)cc1)OCc1nnc(-c2ccccc2)o1		inactive: 0.441%
O=C(c1cccc(C(F)(F)F)c1)N1CCOC12CCN(c1ncc(C(F)(F)F)cc1Cl)CC2	inconclusive: 35.5 µM [inhibitor, single point]	
COc1ccc(CN(CCC(c2ccccc2)c2ccc(OC(C)C)cc2)C(=O)CCl)cc1OC (stereo not given)	inconclusive: 22.4 µM [inhibitor, single point]	
Cc1nc(N2CCN(C(=O)c3ccc(Cl)cc3)CC2)c(C#N)c2c1COC(C)(C)C2	inconclusive: 35.5 µM [inhibitor, single point]	
CCC(=O)N1CCN(C(C)=O)C1c1ccccc1 (stereo not given)	inconclusive: 11.2 µM [inhibitor, single point]	
Cc1cccc(-c2nnc3sc(-c4ccccc4C)nn23)c1	active: 11.2 µM	
O=C(c1ccc2c(=O)n(-c3ccccc3)c(=S)[nH]c2c1)N1CCCCC1	inconclusive: 4.47 µM [inhibitor, partial curve]	
CC/C(=N\O)c1c(O)c2c(n(-c3ccccc3)c1=O)CCCC2	inconclusive: 31.6 µM [activator, single point]	
O=C(CCC1CCCC1)Nc1ccccc1-c1ccccc1	inconclusive: 35.5 µM [inhibitor, single point]	
CCCC(=O)NC(c1cccs1)c1cc([N+](=O)[O-])c2cccnc2c1O (stereo not given)	active: 11.2 µM	
COc1ccc(-c2nc3ccccc3o2)cc1NC(=O)CSc1ccc(Cl)cc1	inconclusive: 20 µM [inhibitor, single point]	
COc1ccc(NC(=O)C(C)N2c3cccc4cccc(c34)S2(=O)=O)cc1OC (stereo not given)	inconclusive: 2.51 µM [inhibitor, full curve]	
Cc1ccc(C)c(N2CC(O)(c3cccs3)[N+]3=C2CCCC3)c1 (stereo not given)	inconclusive: 35.5 µM [inhibitor, single point]	
Cc1ccc(S(=O)(=O)Nc2nc3ccccc3nc2N2CCc3ccccc3C2)cc1	inconclusive: 11.2 µM [inhibitor, single point]	
Cc1cc(C)n2nc(CCCCc3nc4nc(C)cc(C)n4n3)nc2n1	inconclusive: 5.62 µM [inhibitor, single point]	
COc1cccc(/C=N/Nc2nc3ccccc3n3cnnc23)c1O	active: 8.91 µM	
Cc1ccc(N=Cc2cc3c(cc2O)OC(N)=C(C#N)C3c2ccccc2)cc1 (stereo not given)	active: 10 µM	
O=C(NCc1ccco1)c1c(O)c2cccc3c2n(c1=O)CCC3		inactive: -18.6%
COc1ccc(N2CCN(C(=O)CCNS(=O)(=O)c3ccccc3)CC2)cc1		inactive: 11.8%
C=CCc1cccc(/C=N/NC(=O)C(C)Nc2ccc(C)cc2)c1O (stereo not given)	active: 8.91 µM	
O=C(CN1C(=O)C2CCCCC2C1=O)Nc1nc(-c2ccccn2)cs1 (stereo not given)	active: 11.2 µM	
CCOC(=O)c1c(/N=C/c2ccccc2O)sc2c1CCC2	inconclusive: 5.62 µM [inhibitor, single point]	
O=C(Nc1cccc(O)c1)c1cc(S(=O)(=O)N2CCCC2)ccc1Cl	inconclusive: 35.5 µM [inhibitor, single point]	

SMILES	Potency	activity change, negative = inhibition
COc1ccc(C[C@H]2CN3C(=NC[C@H]3C)N2CCNC(=O)c2ccc(C)c(Br)c2)cc1		inactive: -1.48% [at 9.22 µM]
Cc1ccc(NS(=O)(=O)c2cc([N+](=O)[O-])ccc2NNC(=S)Nc2cccc(Cl)c2)c(C)c1		inactive: 10.9%
COc1ccc(Cn2nnnc2C(C(C)C)N(Cc2ccco2)Cc2cccs2)cc1 (stereo not given)	inconclusive: 15.8 µM [inhibitor, single point]	
Cc1ccc(CN2C(=O)CCC2C(=O)NCC2CCCO2)cc1 (stereo not given)		inactive: 10.1%
CCc1ccc(NC2CC(=O)N(c3ccc(OC)cc3OC)C2=O)cc1 (stereo not given)		inactive: -20.1%
CC(CCc1ccccc1)NC(=O)/C=C/c1ccccc1 (stereo not given)		inactive: 5.56%
CSCCC(NC(=O)c1ccccc1)C(=O)N/N=C(\C)c1ccccc1 (stereo not given)		inactive: 1.68%
COc1ccc(CCNc2c(C)c(C)nc3ncnn23)cc1	inconclusive: 2.24 µM [inhibitor, full curve, poor fit]	
CCCCCCC(C)n1[nH]c(=O)c2c(C)cc(=O)[nH]c21 (stereo not given)	active: 11.2 µM	
COc1ccc(-c2cn(-c3ccc(OC)cc3)c3[n+]2-c2ccccc2CC3)cc1	inconclusive: 14.1 µM [inhibitor, partial curve, poor fit]	
Cc1ccc(-c2noc(CCC(=O)NCCN3CCN(Cc4ccccc4)CC3)n2)cc1	inconclusive: 35.5 µM [inhibitor, single point]	
CS(=O)(=O)N1CCCC(C(=O)NCCCN2CCc3ccccc3C2)C1 (stereo not given)	inconclusive: 0.316 µM [inhibitor, partial curve]	
O=C(Nc1ccc(S(=O)(=O)Nc2ccc(Cl)cc2)cc1)C1CCCO1 (stereo not given)	inconclusive: 11.2 µM [inhibitor, partial curve]	
CCc1nc(Nc2ccncc2)c2oc3ccccc3c2n1	inconclusive: 12.6 µM [activator, partial curve]	
CC1CCN(C(=O)CSc2ccc(-c3ccc(F)cc3)nn2)CC1		inactive: -13.4%
CCc1ccc(CNc2ccc3c(c2)ncn3C)cc1	inconclusive: 7.08 µM [inhibitor, partial curve]	
N#Cc1ccccc1NC(=O)COC(=O)CCc1ccc(S(=O)(=O)N2CCCCC2)cc1		inactive: 12.8%
CCn1c(SCC(=O)NCC2CCCO2)nnc1-c1c[nH]c2ccccc12 (stereo not given)		inactive: 10.7%
O=C1c2cccc3c(O)ccc(c23)C(=O)N1Cc1ccccc1	active: 10 µM	
Cc1cccn2c(=O)c3cc(C(=O)NCCc4ccccc4)c(=N)n(CCCn4ccnc4)c3nc12	inconclusive: 35.5 µM [inhibitor, single point]	
Cc1ccc(N=Cc2cc(Cc3ccccc3Cl)cc([N+](=O)[O-])c2O)c(O)c1	inconclusive: 12.6 µM [inhibitor, partial curve]	
O=C(CC(=O)c1ccccc1O)c1cccc(F)c1	inconclusive: 35.5 µM [inhibitor, single point]	
O=S(=O)(c1cnc(Cl)c(Br)c1)N1CCN(c2ncccn2)CC1		inactive: -1.49% [at 9.22 µM]
Cc1ccnc(N2C(=O)c3cccc4c([N+](=O)[O-])ccc(c34)C2=O)c1	active: 17.8 µM	

SMILES	Potency	activity change, negative = inhibition
O=c1[nH]c2ccccc2nc1CCc1ccccc1	inconclusive: 3.16 µM [inhibitor, partial curve, poor fit]	
CCC(=O)N1c2ccc(S(=O)(=O)N(CCO)Cc3ccccc3)cc2CC1C (stereo not given)	inconclusive: 10 µM [inhibitor, partial curve]	
Cc1ccc(S(=O)(=O)Nc2nc(C)cc(N/N=C/c3ccc(O)cc3)n2)cc1	inconclusive: 20 µM [inhibitor, single point]	
CC/C(=N\NC(=O)C(N)=O)c1ccccc1O	active: 10 µM	
CC(C)[C@H](NC(=O)c1ccccc1Cl)C(=O)OCc1cc(=O)n2cc(Br)ccc2n1		inactive: 19.3%
Cc1ccn2cc(CNS(=O)(=O)c3ccc4c(c3)OCCO4)nc2c1	inconclusive: 1.58 µM [activator, partial curve]	
Cc1ccc2sc(N(CCCN(C)C)C(=O)CN3C(=O)c4ccccc4C3=O)nc2c1C		inactive: -19.4%
O=C1CC(c2ccccc2)CC2=C1C(c1ccccn1)Nc1ccccc1N2 (stereo not given)	inconclusive: 1 µM [inhibitor, full curve, poor fit]	
Cc1nc2nc[nH]n2c(=O)c1CCC(C)C	inconclusive: 2.51 µM [inhibitor, single point]	
C=C1CCN([C@H](C(=O)Nc2ccc(OC)cc2)C(C)C)S(=O)(=O)c2ccccc21	inconclusive: 7.08 µM [activator, partial curve]	
CC(C)c1ccc2c(c1)C1(NN=C(c3ccccc3)S1)C(=O)N2 (stereo not given)	inconclusive: 7.08 µM [inhibitor, partial curve]	
COc1ccc(COc2cc(-c3cccc(OC)c3)nc3ccc(NC(=O)c4ccccc4)cc23)cc1	inconclusive: 35.5 µM [inhibitor, single point]	
COc1cc(/C=N/NC(=S)Nc2cccc(C(=O)O)c2)cc(OC)c1OC		inactive: 21.4%
Clc1ccc(-c2cn3c(n2)CCC3)cc1	inconclusive: 35.5 µM [inhibitor, single point]	
CCCc1nc2ccccc2c(=O)n1/N=C/c1c(C)[nH]n(-c2ccc(C)cc2)c1=O	active: 17.8 µM	
COc1cc(/C=C(/C#N)c2ccc(C)cc2)ccc1Oc1ccc([N+](=O)[O-])cn1	inconclusive: 35.5 µM [inhibitor, single point]	
CCN(Cc1ccc(OC)c(F)c1)C(=O)CCl	inconclusive: 35.5 µM [inhibitor, single point]	
Cc1ccc(-c2nc(-c3cccnc3)sc2CC(=O)Nc2ccc(C)c(Cl)c2)cc1	inconclusive: 14.1 µM [inhibitor, single point]	
CC(=O)CC(=O)Nc1ncccn1	inconclusive: 0.562 µM [activator, partial curve, poor fit]	
CCN(CC)CCn1nc2c3c(cccc3c1=O)-c1ccccc1-2	active: 0.631 µM	
CCOC(=O)c1ccc(S(=O)(=O)N2CCC(C(=O)OCC)CC2)cc1	inconclusive: 11.2 µM [inhibitor, partial curve, poor fit]	
CCN(Cc1ccccc1)C(c1cccc(C#N)c1)c1nnnn1C(C)(C)C (stereo not given)	inconclusive: 35.5 µM [inhibitor, single point]	

Record cards, from the list above:
COc1cccc(/C=N/Nc2nc3ccccc3n3cnnc23)c1O is listed with Potency: active: 8.91 µM
Cc1ccnc(N2C(=O)c3cccc4c([N+](=O)[O-])ccc(c34)C2=O)c1 is listed with Potency: active: 17.8 µM
COc1cc(/C=N/NC(=S)Nc2cccc(C(=O)O)c2)cc(OC)c1OC is listed with activity change, negative = inhibition: inactive: 21.4%

From PubChem BioAssay AID1688 (National Center for Advancing Translational Sciences (NCATS), 2009)
